Results are given in words; binding and its absence hold for the method and conditions named. Binding seen in cells or lysates may run through a third protein. A yes stands for co-enrichment or nearness to the bait. Other partners may have been found. Where a sequence is shown, tags or fusion partners need not be part of it.
T1: MeeF-FLAG (Bacillus subtilis) (UniProt O34447)
T1 sequence: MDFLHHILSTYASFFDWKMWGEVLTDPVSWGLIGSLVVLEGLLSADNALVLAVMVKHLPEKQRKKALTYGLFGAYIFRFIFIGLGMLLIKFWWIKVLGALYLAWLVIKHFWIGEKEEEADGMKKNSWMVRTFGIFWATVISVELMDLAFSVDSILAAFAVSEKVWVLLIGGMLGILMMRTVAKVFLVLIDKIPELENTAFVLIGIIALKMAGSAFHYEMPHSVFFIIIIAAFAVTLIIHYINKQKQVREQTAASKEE

T2: MeeY-FLAG (Bacillus subtilis) (UniProt O34997)
T2 sequence: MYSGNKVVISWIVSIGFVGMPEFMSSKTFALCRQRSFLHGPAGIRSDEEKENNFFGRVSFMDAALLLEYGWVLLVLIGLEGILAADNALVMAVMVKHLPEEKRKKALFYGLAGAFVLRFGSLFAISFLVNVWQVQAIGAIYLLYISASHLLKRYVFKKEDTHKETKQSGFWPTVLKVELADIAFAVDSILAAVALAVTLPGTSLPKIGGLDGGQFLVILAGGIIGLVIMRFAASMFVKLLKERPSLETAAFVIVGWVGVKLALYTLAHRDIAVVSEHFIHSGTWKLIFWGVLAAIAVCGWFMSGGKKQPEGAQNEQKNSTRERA

B1: MsmX (protein, UniProt P94360 1-365)
chain: MAELRMEHIYKFYDQKEPAVDDFNLHIADKEFIVFVGPSGCGKSTTLRMVAGLEEISKGDFYIEGKRVNDVAPKDRDIAMVFQNYALYPHMTVYDNIAFGLKLRKMPKPEIKKRVEEAAKILGLEEYLHRKPKALSGGQRQRVALGRAIVRDAKVFLMDEPLSNLDAKLRVQMRAEIIKLHQRLQTTTIYVTHDQTEALTMATRIVVMKDGKIQQIGTPKDVYEFPENVFVGGFIGSPAMNFFKGKLTDGLIKIGSAALTVPEGKMKVLREKGYIGKEVIFGIRPEDIHDELIVVESYKNSSIKAKINVAELLGSEIMIYSQIDNQDFIARIDARLDIQSGDELTVAFDMNKGHFFDSETEVRIR
B2: YrbF (protein, UniProt O32052 1-89)
chain: MMTGTLGTLVPIILMFAVLYFLLIRPQQKQQKAVRQMQEELKKGDSVVTIGGLHGTVDSIDESKVVIKTGDNTRLTFDRRAIREVSAAE
B3: OppB (protein, UniProt P24138 1-311)
chain: MLKYIGRRLVYMIITLFVIVTVTFFLMQAAPGGPFSGEKKLPPEIEANLNAHYGLDKPLFVQYVSYLKSVAMWDFGPSFKYKGQSVNDLISSGFPVSFTLGAEAILLALALGVLFGVIAALYHNKWQDYTVAILTIFGISVPSFIMAAVLQYVFSMKLGLFPVAGWDSWAYTFLPSIALASMPMAFIARLSRSSMIEVLNSDYIRTAKAKGLSRPAVTVRHAIRNALLPVVTYMGPMAAQVLTGSFIIETIFGIPGLGAHFVNSITNRDYTVIMGVTVFFSVILLLCVLIVDVLYGIIDPRIKLSKAKKGA
B4: HtpX (protein, UniProt O31657 1-298)
chain: MAKRIFLFILTNILVLTTIGIVLSVLSSVTGVGTYFTADGGIDPMALLVFSLVVGFVGSFTSLAISRWMAKTMMGVRVLNPKKHSLSYEEQQLVDRVHRLSRSAGLTKMPEVGIYRSPEVNAFATGPSKRRSLVAVSSGLLEQMDDAAVEGVLAHEVAHITNGDMVTMTLLQGIVNTFVVFLSRIAAWIASRFVKEDLAPIVHFIAMIIFQIVFSILGSLVVFAYSRHREFHADRGGADLAGKDKMIHALRTLKSYSSRILEDDQTAVQTLKINGKKRSSLFSTHPDLDERIRRLEAK
B5: FhuD (protein, UniProt P37580 24-315)
chain: CGNNSESKGSASDSKGAETFTYKAENGNVKIPKHPKRVVVMADGYYGYFKTLGINVVGAPENVFKNPYYKGKTNGVENIGDGTSVEKVIDLNPDLIIVWTTQGADIKKLEKIAPTVAVKYDKLDNIEQLKEFAKMTGTEDKAEKWLAKWDKKVAAAKTKIKKAVGDKTISIMQTNGKDIYVFGKDFGRGGSIIYKDLGLQATKLTKEKAIDQGPGYTSISLEKLPDFAGDYIFAGPWQSGGDDGGVFESSIWKNLNAVKNGHVYKMDPIGFYFTDPISLEGQLEFITESLTK
B6: FtsA (protein, UniProt P28264 1-440)
chain: MNNNELYVSLDIGTSNTKVIVGEMTDDSLNIIGVGNVPSEGLKKGSIVDIDETVHSIRKAFDQAERMVGFPLRKAIVGVNGNYINIQDTNGVVAVSSENKEIQVEDVRRVMEAAQVVSVPHEQLIVDVIPKQFIVDGRDEITDPKKMLGVRLEVEGTLITGSKTILHNLLRCVERAGIEITDICLQPLAAGSAALSKDEKNLGVALIDIGGGSTTIAVFQNGHLTSTRVIPLGGENITKDISIGLRTSTEEAERVKKQLGHAYYDEASEDEIFEVTVIGTNQKQTFTQQEAANIIEARVEEILEIVSEELRSMGITDLPGGFVLTGGQAAMPGVMSLAQDVLQNNVRVASPNYIGVRDPQYMTGVGLIQFACRNARIQGRKIGFKMPEEAIQEIAVSSSEEQEQHHHQNEVQQRPKGKQKTQAEHNKQSKMKKLLSMFWE
B7: GlcD (protein, UniProt P94535 1-470)
chain: MITKDVKEQLIQVSGPENFDDSNAGRLVYSYDATPQYQSMPDAVIAPRNTDEISRILTICSEHRVPIVPRGSGTNLCGGTCPTEGGLVLLFKHMNQILEIDEENLTATVQPGVITLDMIRAVESKGLFYPPDPSSMKISTIGGNINENSGGLRGLKYGVTRDYVIGLEVVLANGDIIRTGGKLAKDVAGYDLTRLFVGSEGTLGIVTEAIVKLVPKPETKKTLLALYENIDAAAQTVSDIIAAKIIPATLEFLDQPTLLVIEDYAKIGLPTSAKAVLLIEQDGPFETVERDMEKIEAICKKGDAVSVQTAQTEEEAFALTEARRSALSALARLKPTTILEDATVPRSEIANMVKAINDIAAKYDISICTFGHAGDGNLHPTCTTDIRNKDEMERVEQAFAEIFEKAIELGGTITGEHGVGEMKAPYLEMKLKKEGIDAMKALKAAFDPRNILNPGKMFAKDARKRVVAER
B8: FloT (protein, UniProt O32076 1-509)
chain: MTMPIIMIIGVVFFLLIALIAVFITKYRTAGPDEALIVTGSYLGNKNVHVDEGGNRIKIVRGGGTFVLPVFQQAEPLSLLSSKLDVSTPEVYTEQGVPVMADGTAIIKIGGSIGEIATAAEQFLGKSKDDREQEAREVLEGHLRSILGSMTVEEIYKNREKFSQEVQRVASQDLAKMGLVIVSFTIKDVRDKNGYLESLGKPRIAQVKRDADIATAEADKETRIKRAEADKDAKKSELERATEIAEAEKINQLKMAEFRREQDTAKANADQAYDLETARARQQVTEQEMQVKIIERQKQIELEEKEILRRERQYDSEVKKKADADRYSVEQSAAAEKAKQLAEADAKKYSIEAMAKAEAEKVRIDGLAKAEAEKAKGETEAEVIRLKGLAEAEAKEKIAAAFEQYGQAAIFDMIVKMLPEYAKQAAAPLSNIDKITVVDTGGSGESSGANKVTSYATNLMSSLQESLKASSGIDVKEMLENFSGKGNVKQSINELTNEIKEAKTIQKSE
B9: SecY (protein, UniProt P16336 1-431)
chain: MFKTISNFMRVSDIRNKIIFTLLMLIVFRIGAFIPVPYVNAEALQAQSQMGVFDLLNTFGGGALYQFSIFAMGITPYITASIIIQLLQMDVVPKFTEWSKQGEVGRRKLAQFTRYFTIVLGFIQALGMSYGFNNLANGMLIEKSGVSTYLIIALVLTGGTAFLMWLGEQITSHGVGNGISIIIFAGIVSSIPKTIGQIYETQFVGSNDQLFIHIVKVALLVIAILAVIVGVIFIQQAVRKIAIQYAKGTGRSPAGGGQSTHLPLKVNPAGVIPVIFAVAFLITPRTIASFFGTNDVTKWIQNNFDNTHPVGMAIYVALIIAFTYFYAFVQVNPEQMADNLKKQGGYIPGVRPGKMTQDRITSILYRLTFVGSIFLAVISILPIFFIQFAGLPQSAQIGGTSLLIVVGVALETMKQLESQLVKRNYRGFMKN
B10: QoxB (protein, UniProt P34956 1-649)
chain: MKFKWDEFFVTGDPLILGAQVSIALSTIAIIFVLTYFKKWKWLWSEWITTVDHKKLGIMYIISAVIMLFRGGVDGLMMRAQLALPNNSFLDSNHYNEIFTTHGTIMIIFMAMPFLIGLINVVVPLQIGARDVAFPYLNNLSFWTFFVGAMLFNISFVIGGSPNAGWTSYMPLASNDMSPGPGENYYLLGLQIAGIGTLMTGINFMVTILKMRTKGMTLMRMPMFTWTTLITMVIIVFAFPVLTVALALLSFDRLFGAHFFTLEAGGMPMLWANLFWIWGHPEVYIVILPAFGIFSEIISSFARKQLFGYKAMVGSIIAISVLSFLVWTHHFFTMGNSASVNSFFSITTMAISIPTGVKIFNWLFTMYKGRISFTTPMLWALAFIPNFVIGGVTGVMLAMAAADYQYHNTYFLVSHFHYVLIAGTVFACFAGFIFWYPKMFGHKLNERIGKWFFWIFMIGFNICFFPQYFLGLQGMPRRIYTYGPNDGWTTLNFISTVGAFMMGVGFLILCYNIYYSFRYSTREISGDSWGVGRTLDWATSSAIPPHYNFAVLPEVKSQDAFLHMKEEKTELYPESKFKKIHMPSNSGRPFFMSVAFGLAGFGLVFEWYWMGVVGLIGVLLCMVLRSFEYDNGYYISVDEIKETERKISE
B11: NupN (protein, UniProt O05252 23-359)
chain: CGNSEKSSGSGEGKNKFSVAMVTDVGGVDDKSFNQSAWEGIQAFGKENGLKKGKNGYDYLQSKSDADYTTNLNKLARENFDLIYGVGYLMEDSISEIADQRKNTNFAIIDAVVDKDNVASITFKEQEGSFLVGVAAALSSKSGKIGFVGGMESELIKKFEVGFRAGVQAVNPKAVVEVKYAGGFDKADVGKATAESMYKSGVDVIYHSAGATGTGVFTEAKNLKKEDPKRDVWVIGVDKDQYAEGQVEGTDDNVTLTSMVKKVDTVVEDVTKKASDGKFPGGETLTYGLDQDGVGISPSKQNLSDDVIKAVDKWKKKIIDGLEIPATEKELKTFKAE
B12: QoxA (protein, UniProt P34957 26-321)
chain: CSNASVLDPKGPVAEQQSDLILLSIGFMLFIVGVVFVLFTIILVKYRDRKGKDNGSYNPEIHGNTFLEVVWTVIPILIVIALSVPTVQTIYSLEKAPEATKDKEPLVVYATSVDWKWVFSYPEQDIETVNYLNIPVDRPILFKISSADSMASLWIPQLGGQKYAMAGMLMDQYLQADKVGTYEGRNANFTGEHFADQEFDVNAVTEKDFNSWVKKTQNEAPKLTKEKYDELMLPENVDELTFSSTHLKYVDHGQDAEYAMEARKRLGYQAVSPHSKTDPFENVKKNEFKKSDDTEE
B13: AtpF (protein, UniProt P37814 1-170)
chain: MSQLPLELGLSFNGGDILFQLLAMLILLALLKKYALGPLLNIMKQREDHIAGEITSAEEKNKEAQQLIEEQRVLLKEARQESQTLIENAKKLGEKQKEEIIQAARAESERLKEAARTEIVKEKEQAVSALREQVASLSVMIASKVIEKELDEQAQEKLIQDYLKEVGESR

Target: T1, MeeF-FLAG (Bacillus subtilis)
Assay: affinity purification with mass spectrometry; C-terminally FLAG-tagged bait captured on anti-FLAG M2 magnetic beads from B. subtilis lysate (overnight LB culture with 50 uM Mn; lysozyme, sonication, DNase, 1% Triton X-100), 30 °C 3 h, three PBS washes; eluted by heating at 95 °C for 10 min; LC-MS/MS, at least 2 peptides

binding, binds:
B1, B2, B3, B4, B5, B6, B7, B8, B9, B10, B11

Target: T2, MeeY-FLAG (Bacillus subtilis)
Assay: as above

binding, binds:
B12, B13

From publication PMC10246235
